The list shows a part of the results.
Assays:
Experiment in all cases: log2 fold change, soluble protein after heating vs DMSO (PISA); higher = thermal stabilisation; K562 cells, 10 uM, 30 min; active = over 0.2 and 3.5 SD of the protein, either way, in both replicates (recomputed)
[1] = compound: CS(=O)(=O)c1ccc(-c2cnc(N)c(C(=O)Nc3ccccc3)n2)cc1
Summary of the method: (§1)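 Thermal stability values are relative to control samples and come from duplicates. They are expressed as log2 fold changes. For measurement, K562 cells (2×10^6 cells/mL) received 10 μM compound for 30 min, and aliquots were heated for 3 min over 48°C-58°C, pooled, and extracted at 4°C in PBS with 0.5% NP-40. Soluble protein, the supernatant after 21,000xg for 90 min, was quantified by TMTpro 16plex LC-MS/MS with equalised channel sums.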

The chains behind the UniProt entries cited, without tags or fusion partners. Where a name states a change or a piece, a line headed by the entry shows the natural chain unless it says otherwise.
UniProt Q14651: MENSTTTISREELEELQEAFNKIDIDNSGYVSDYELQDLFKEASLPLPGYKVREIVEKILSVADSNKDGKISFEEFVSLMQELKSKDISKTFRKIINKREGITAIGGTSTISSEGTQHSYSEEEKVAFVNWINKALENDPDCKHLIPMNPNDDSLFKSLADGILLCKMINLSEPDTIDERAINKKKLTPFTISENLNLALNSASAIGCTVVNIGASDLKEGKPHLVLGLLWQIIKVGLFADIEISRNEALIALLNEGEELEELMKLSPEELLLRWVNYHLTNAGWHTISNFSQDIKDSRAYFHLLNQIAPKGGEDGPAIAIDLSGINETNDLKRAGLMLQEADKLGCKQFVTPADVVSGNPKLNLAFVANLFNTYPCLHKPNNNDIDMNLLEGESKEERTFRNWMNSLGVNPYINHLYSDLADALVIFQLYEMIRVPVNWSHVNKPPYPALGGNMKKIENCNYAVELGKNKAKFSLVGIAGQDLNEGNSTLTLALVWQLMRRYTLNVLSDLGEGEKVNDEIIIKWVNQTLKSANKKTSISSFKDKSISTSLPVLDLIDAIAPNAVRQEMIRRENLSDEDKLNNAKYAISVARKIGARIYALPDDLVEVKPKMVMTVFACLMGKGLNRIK
UniProt O60664: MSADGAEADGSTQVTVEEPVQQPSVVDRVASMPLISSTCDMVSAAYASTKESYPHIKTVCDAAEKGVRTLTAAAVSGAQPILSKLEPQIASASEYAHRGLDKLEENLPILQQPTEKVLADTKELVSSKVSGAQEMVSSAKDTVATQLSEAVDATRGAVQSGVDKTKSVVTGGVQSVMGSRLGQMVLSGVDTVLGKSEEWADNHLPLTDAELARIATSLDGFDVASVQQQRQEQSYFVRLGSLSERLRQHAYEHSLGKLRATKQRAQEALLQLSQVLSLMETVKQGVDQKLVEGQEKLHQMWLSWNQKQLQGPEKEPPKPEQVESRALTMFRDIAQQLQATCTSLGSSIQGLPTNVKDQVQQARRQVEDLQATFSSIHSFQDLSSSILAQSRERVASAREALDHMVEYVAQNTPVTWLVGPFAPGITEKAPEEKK
UniProt Q969H6: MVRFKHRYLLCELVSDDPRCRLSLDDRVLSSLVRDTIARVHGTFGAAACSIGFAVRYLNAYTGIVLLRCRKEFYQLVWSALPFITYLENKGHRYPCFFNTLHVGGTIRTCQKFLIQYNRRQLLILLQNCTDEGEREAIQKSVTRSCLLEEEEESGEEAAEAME
UniProt Q15054: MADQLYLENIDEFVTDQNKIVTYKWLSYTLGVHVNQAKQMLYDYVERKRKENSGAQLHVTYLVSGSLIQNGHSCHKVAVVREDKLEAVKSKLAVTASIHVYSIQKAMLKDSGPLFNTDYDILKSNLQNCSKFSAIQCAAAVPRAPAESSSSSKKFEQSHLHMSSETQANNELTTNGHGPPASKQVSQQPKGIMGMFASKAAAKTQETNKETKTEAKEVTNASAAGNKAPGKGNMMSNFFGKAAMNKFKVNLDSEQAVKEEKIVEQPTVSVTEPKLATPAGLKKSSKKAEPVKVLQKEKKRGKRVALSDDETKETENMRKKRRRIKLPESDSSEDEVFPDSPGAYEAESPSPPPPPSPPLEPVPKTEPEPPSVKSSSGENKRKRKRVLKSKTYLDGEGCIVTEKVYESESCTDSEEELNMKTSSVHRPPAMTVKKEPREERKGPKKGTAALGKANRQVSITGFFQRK
UniProt Q9NP80: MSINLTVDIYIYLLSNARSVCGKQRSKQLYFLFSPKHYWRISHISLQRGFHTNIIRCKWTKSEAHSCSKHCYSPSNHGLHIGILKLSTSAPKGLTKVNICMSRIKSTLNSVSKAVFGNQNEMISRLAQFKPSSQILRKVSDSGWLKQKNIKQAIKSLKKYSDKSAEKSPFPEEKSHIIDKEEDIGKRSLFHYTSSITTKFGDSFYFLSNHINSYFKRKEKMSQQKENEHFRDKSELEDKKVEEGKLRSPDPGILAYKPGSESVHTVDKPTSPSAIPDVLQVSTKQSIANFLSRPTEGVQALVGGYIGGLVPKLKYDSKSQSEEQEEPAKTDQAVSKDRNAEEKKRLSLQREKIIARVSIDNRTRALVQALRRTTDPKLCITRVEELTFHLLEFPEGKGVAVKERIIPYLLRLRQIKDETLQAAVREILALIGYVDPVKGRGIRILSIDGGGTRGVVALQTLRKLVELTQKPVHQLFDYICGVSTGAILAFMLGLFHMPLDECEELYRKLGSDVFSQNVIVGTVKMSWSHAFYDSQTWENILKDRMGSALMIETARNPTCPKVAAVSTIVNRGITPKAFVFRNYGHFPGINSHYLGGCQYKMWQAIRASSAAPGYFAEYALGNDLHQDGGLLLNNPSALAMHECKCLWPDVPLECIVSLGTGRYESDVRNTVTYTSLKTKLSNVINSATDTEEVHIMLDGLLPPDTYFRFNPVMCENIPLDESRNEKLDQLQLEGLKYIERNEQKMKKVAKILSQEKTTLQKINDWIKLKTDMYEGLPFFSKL
UniProt P0DPB5: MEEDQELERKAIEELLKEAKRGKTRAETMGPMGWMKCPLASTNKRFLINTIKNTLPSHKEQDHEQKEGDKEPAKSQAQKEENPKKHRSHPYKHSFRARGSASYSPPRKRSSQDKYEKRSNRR
UniProt O15162: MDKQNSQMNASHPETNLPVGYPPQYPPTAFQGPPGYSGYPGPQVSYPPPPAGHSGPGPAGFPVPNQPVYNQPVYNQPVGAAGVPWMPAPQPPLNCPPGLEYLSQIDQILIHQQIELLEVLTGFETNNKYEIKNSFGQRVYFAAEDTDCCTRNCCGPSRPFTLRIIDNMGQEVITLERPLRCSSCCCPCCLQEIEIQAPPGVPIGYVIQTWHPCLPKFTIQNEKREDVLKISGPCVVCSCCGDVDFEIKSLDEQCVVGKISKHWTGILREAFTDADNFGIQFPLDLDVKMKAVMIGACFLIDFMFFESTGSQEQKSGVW
UniProt P45877: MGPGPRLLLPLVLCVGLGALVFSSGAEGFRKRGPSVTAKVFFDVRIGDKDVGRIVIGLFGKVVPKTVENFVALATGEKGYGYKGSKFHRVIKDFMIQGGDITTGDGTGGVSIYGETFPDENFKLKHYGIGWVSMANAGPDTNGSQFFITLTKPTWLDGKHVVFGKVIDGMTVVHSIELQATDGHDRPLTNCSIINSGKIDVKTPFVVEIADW
UniProt O75439: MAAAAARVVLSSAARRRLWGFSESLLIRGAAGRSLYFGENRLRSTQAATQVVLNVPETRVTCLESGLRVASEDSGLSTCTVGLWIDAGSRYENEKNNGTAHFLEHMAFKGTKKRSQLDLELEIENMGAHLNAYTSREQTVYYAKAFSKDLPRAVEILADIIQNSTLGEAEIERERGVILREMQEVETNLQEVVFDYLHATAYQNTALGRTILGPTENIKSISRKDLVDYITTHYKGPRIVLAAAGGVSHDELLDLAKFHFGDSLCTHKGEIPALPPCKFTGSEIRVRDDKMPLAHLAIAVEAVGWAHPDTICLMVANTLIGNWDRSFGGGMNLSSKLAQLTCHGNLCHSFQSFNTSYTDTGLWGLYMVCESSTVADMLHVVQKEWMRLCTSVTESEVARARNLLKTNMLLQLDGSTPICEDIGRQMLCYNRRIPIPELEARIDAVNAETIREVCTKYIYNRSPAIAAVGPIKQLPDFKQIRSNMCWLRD
UniProt Q08752, whole entry, looked up: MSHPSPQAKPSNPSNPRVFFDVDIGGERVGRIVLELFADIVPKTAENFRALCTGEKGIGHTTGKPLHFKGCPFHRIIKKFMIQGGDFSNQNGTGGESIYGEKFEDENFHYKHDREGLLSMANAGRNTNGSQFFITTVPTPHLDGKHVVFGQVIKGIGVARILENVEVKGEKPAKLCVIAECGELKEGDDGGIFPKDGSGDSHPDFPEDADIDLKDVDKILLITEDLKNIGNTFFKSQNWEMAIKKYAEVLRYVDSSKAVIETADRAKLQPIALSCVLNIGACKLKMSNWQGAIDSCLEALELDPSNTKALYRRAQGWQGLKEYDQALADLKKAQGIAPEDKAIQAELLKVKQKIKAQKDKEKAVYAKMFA
UniProt Q13356: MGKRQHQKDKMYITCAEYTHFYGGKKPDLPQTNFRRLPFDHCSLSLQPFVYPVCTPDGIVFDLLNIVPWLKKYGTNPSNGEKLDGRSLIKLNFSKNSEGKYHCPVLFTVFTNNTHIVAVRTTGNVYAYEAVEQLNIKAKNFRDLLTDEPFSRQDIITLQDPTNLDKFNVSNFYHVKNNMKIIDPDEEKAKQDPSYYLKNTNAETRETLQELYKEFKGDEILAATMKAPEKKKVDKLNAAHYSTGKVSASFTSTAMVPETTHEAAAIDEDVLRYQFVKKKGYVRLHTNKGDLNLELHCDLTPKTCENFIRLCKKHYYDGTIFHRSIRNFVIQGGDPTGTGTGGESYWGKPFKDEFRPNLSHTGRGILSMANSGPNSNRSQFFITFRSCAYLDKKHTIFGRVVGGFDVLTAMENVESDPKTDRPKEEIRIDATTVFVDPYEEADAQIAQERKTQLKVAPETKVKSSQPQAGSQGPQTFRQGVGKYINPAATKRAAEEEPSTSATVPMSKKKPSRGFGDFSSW
UniProt Q10713: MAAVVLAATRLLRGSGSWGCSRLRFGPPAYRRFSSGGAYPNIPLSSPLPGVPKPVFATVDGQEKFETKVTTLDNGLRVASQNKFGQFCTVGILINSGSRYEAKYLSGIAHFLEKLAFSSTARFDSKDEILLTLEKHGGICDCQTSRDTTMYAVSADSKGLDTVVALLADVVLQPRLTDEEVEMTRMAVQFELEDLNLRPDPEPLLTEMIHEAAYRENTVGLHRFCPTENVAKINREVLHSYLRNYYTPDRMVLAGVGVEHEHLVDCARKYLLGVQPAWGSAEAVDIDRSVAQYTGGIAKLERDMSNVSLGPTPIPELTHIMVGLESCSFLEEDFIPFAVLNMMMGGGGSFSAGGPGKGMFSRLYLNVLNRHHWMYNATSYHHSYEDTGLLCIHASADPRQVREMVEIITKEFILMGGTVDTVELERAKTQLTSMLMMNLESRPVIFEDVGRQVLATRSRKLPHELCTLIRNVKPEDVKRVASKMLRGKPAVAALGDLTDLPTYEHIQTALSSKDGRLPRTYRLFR
UniProt Q8IWE5: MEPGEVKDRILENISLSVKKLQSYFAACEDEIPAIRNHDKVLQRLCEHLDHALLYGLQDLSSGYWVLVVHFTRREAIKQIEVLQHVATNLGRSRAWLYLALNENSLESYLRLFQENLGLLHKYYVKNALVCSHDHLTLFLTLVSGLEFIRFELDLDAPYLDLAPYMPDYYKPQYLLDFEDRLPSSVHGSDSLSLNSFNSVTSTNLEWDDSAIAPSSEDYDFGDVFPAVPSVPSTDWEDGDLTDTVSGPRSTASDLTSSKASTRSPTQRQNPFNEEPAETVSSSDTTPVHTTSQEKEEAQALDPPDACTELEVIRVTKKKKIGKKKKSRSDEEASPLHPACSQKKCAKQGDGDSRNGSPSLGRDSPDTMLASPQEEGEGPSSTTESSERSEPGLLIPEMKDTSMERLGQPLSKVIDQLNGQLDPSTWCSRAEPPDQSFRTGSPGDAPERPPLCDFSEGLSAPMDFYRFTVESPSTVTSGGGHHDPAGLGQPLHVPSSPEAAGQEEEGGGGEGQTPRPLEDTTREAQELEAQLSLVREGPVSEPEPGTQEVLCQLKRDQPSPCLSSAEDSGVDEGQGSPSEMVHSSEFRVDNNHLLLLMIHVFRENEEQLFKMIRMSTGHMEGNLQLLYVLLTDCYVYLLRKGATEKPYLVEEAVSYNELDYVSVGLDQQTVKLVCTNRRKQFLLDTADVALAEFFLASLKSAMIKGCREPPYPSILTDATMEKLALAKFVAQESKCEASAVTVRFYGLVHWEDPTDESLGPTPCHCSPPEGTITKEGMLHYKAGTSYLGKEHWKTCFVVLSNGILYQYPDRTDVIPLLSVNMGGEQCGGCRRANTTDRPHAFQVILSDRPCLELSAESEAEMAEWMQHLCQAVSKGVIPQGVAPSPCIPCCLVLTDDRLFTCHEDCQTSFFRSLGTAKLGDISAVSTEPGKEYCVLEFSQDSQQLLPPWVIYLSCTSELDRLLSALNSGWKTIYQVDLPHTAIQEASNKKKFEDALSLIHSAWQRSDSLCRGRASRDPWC
UniProt O15305: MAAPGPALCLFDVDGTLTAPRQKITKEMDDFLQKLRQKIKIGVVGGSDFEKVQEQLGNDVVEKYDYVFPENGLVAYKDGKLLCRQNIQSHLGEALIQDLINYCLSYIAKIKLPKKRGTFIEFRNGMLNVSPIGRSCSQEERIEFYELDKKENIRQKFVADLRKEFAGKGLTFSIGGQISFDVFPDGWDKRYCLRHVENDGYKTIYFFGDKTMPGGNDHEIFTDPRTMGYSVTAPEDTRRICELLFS
UniProt Q92871: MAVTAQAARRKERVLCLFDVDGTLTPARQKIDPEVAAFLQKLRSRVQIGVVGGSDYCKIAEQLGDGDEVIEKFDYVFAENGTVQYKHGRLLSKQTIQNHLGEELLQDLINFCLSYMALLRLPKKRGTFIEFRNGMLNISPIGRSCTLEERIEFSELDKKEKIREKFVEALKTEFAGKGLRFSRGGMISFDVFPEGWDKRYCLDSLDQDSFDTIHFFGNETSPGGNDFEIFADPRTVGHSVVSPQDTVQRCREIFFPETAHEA

crizotinib = compound: C[C@@H](Oc1cc(-c2cnn(C3CCNCC3)c2)cnc1N)c1c(Cl)ccc(F)c1Cl [crizotinib]
Summary of the method: as §1

[2] = compound: C[C@@H]1COCCN1C2=NC(=NC(=C2)C3(CC3)S(=O)(=O)C)C4=C5C=CNC5=CC=C4
Summary of the method: as §1

[3] = compound: C[C@H](C1=CC=C(C=C1)C(=O)NC2=C3C=CNC3=NC=C2)N
Summary of the method: as §1

duvelisib = compound: C[C@H](Nc1ncnc2nc[nH]c12)c1cc2cccc(Cl)c2c(=O)n1-c1ccccc1 [duvelisib]
Summary of the method: as §1

gandotinib = compound: Cc1cc(Nc2cc(CN3CCOCC3)c3nc(C)c(Cc4ccc(Cl)cc4F)n3n2)n[nH]1 [gandotinib]
Summary of the method: as §1

tozasertib = compound: Cc1cc(Nc2cc(N3CCN(C)CC3)nc(Sc3ccc(NC(=O)C4CC4)cc3)n2)n[nH]1 [tozasertib]
Summary of the method: as §1

[4] = compound: Cc1cc(SCc2sc(-c3ccc(C(F)(F)F)cc3)nc2C)ccc1OCC(=O)O
Summary of the method: as §1

doramapimod = compound: Cc1ccc(-n2nc(C(C)(C)C)cc2NC(=O)Nc2ccc(OCCN3CCOCC3)c3ccccc23)cc1 [doramapimod]
Summary of the method: as §1

ispinesib = compound: Cc1ccc(C(=O)N(CCCN)[C@@H](c2nc3cc(Cl)ccc3c(=O)n2Cc2ccccc2)C(C)C)cc1 [ispinesib]
Summary of the method: as §1

PPIB (UniProt P23284)
log2 fold change [1]: inactive: 0.026
log2 fold change (crizotinib): inactive: 0.054
log2 fold change [2]: inactive: -0.067
log2 fold change [3]: inactive: 0.07
log2 fold change (duvelisib): inactive: -0.046
log2 fold change (gandotinib): inactive: 0.019
log2 fold change (tozasertib): inactive: 0.017
log2 fold change [4]: inactive: 0.014
log2 fold change (doramapimod): inactive: 0.032
log2 fold change (ispinesib): inactive: -0.013

PLS1 (UniProt Q14651)
log2 fold change [1]: inactive: 0.015
log2 fold change (crizotinib): inactive: -0.048
log2 fold change [2]: inactive: 0.044
log2 fold change [3]: inactive: 0.001
log2 fold change (duvelisib): inactive: 0.06
log2 fold change (gandotinib): inactive: -0.024
log2 fold change (tozasertib): inactive: 0.004
log2 fold change [4]: inactive: 0.034
log2 fold change (doramapimod): inactive: -0.032
log2 fold change (ispinesib): inactive: 0.026

PLIN3 (UniProt O60664)
log2 fold change [1]: inactive: -0.019
log2 fold change (crizotinib): inactive: -0.016
log2 fold change [2]: inactive: 0.068
log2 fold change [3]: inactive: -0.057
log2 fold change (duvelisib): inactive: 0.016
log2 fold change (gandotinib): inactive: -0.032
log2 fold change (tozasertib): inactive: 0.002
log2 fold change [4]: inactive: -0.009
log2 fold change (doramapimod): inactive: -0.035
log2 fold change (ispinesib): inactive: -0.013

POP5 (UniProt Q969H6)
log2 fold change [1]: inactive: -0.006
log2 fold change (crizotinib): inactive: 0.063
log2 fold change [2]: inactive: -0.004
log2 fold change [3]: inactive: -0.036
log2 fold change (duvelisib): inactive: -0.031
log2 fold change (gandotinib): inactive: 0.131
log2 fold change (tozasertib): inactive: 0.093
log2 fold change [4]: inactive: -0.104
log2 fold change (doramapimod): inactive: 0.003
log2 fold change (ispinesib): inactive: 0.045

POLD3 (UniProt Q15054)
log2 fold change [1]: inactive: 0.177
log2 fold change (crizotinib): inactive: -0.055
log2 fold change [2]: inactive: 0.155
log2 fold change [3]: inactive: -0.076
log2 fold change (gandotinib): inactive: -0.049
log2 fold change [4]: inactive: 0.008
log2 fold change (doramapimod): inactive: -0.012
log2 fold change (ispinesib): inactive: -0.123

PMS2 (UniProt P54278)
log2 fold change [1]: inactive: -0.396
log2 fold change (crizotinib): inactive: 0.035
log2 fold change [2]: inactive: 0.205
log2 fold change [3]: inactive: 0.237
log2 fold change (duvelisib): inactive: -0.021
log2 fold change [4]: inactive: -0.065
log2 fold change (doramapimod): inactive: 0.509
log2 fold change (ispinesib): inactive: -0.07

PNPLA8 (UniProt Q9NP80)
log2 fold change [1]: inactive: -0.009
log2 fold change (crizotinib): inactive: -0.12
log2 fold change [2]: inactive: 0.002
log2 fold change [3]: inactive: -0.034
log2 fold change (gandotinib): inactive: 0.031
log2 fold change [4]: inactive: -0.002
log2 fold change (doramapimod): inactive: 0.023
log2 fold change (ispinesib): inactive: -0.051

POLR1D (UniProt P0DPB6)
log2 fold change [1]: inactive: 0.014
log2 fold change (crizotinib): inactive: -0.058
log2 fold change [2]: inactive: -0.126
log2 fold change [3]: inactive: 0.054
log2 fold change (duvelisib): inactive: 0.05
log2 fold change (tozasertib): inactive: 0.043
log2 fold change [4]: inactive: 0.075
log2 fold change (doramapimod): inactive: -0.011
log2 fold change (ispinesib): inactive: -0.146

POLR1D (UniProt P0DPB5)
log2 fold change [1]: inactive: -0.131
log2 fold change (crizotinib): inactive: 0.035
log2 fold change [2]: inactive: -0.101
log2 fold change [3]: inactive: 0.132
log2 fold change (gandotinib): inactive: 0.107
log2 fold change (tozasertib): inactive: 0.063
log2 fold change (doramapimod): inactive: 0.064
log2 fold change (ispinesib): inactive: -0.022

PLSCR1 (UniProt O15162)
log2 fold change [1]: inactive: 0.079
log2 fold change (crizotinib): inactive: 0.017
log2 fold change [2]: inactive: 0.101
log2 fold change [3]: inactive: -0.024
log2 fold change (gandotinib): inactive: -0.096
log2 fold change [4]: inactive: -0.017
log2 fold change (doramapimod): inactive: 0.042
log2 fold change (ispinesib): active: -0.619

POLR2K (UniProt P53803)
log2 fold change [1]: inactive: 0.029
log2 fold change (crizotinib): inactive: 0.18
log2 fold change [2]: inactive: 0.074
log2 fold change [3]: inactive: 0.098
log2 fold change (gandotinib): inactive: -0.011
log2 fold change [4]: inactive: 0.001
log2 fold change (doramapimod): inactive: -0.059
log2 fold change (ispinesib): inactive: 0.029

PNPLA2 (UniProt Q96AD5)
log2 fold change [1]: inactive: 0.048
log2 fold change (crizotinib): inactive: -0.055
log2 fold change [2]: inactive: 0.094
log2 fold change [3]: inactive: 0.095
log2 fold change (gandotinib): inactive: -0.303
log2 fold change [4]: inactive: -0.065
log2 fold change (doramapimod): inactive: 0.046
log2 fold change (ispinesib): active: -0.395

POTEI (UniProt P0CG38)
log2 fold change [1]: inactive: -0.009
log2 fold change (crizotinib): inactive: 0.109
log2 fold change [2]: inactive: 0.241
log2 fold change [3]: inactive: -0.096
log2 fold change (gandotinib): inactive: -0.019
log2 fold change [4]: inactive: -0.021
log2 fold change (doramapimod): active: -0.739
log2 fold change (ispinesib): inactive: 0.131

PLIN2 (UniProt Q99541)
log2 fold change [1]: inactive: -0.103
log2 fold change (crizotinib): active: -0.841
log2 fold change [2]: inactive: 0.054
log2 fold change [3]: inactive: 0.03
log2 fold change (gandotinib): inactive: -0.31
log2 fold change [4]: inactive: 0.031
log2 fold change (doramapimod): inactive: -0.092
log2 fold change (ispinesib): active: -2.6

PPIC (UniProt P45877)
log2 fold change [1]: inactive: 0.008
log2 fold change (crizotinib): inactive: 0.018
log2 fold change [2]: inactive: -0.023
log2 fold change [3]: inactive: 0.313
log2 fold change (duvelisib): inactive: -0.065
log2 fold change (gandotinib): inactive: 0.208
log2 fold change [4]: inactive: 0.023
log2 fold change (doramapimod): inactive: -0.043

PMPCB (UniProt O75439)
log2 fold change [1]: inactive: 0.012
log2 fold change (crizotinib): inactive: 0.015
log2 fold change [2]: inactive: 0.054
log2 fold change [3]: inactive: -0.081
log2 fold change (gandotinib): inactive: -0.096
log2 fold change [4]: inactive: -0.019
log2 fold change (doramapimod): inactive: 0.009
log2 fold change (ispinesib): inactive: -0.034

PLTP (UniProt P55058)
log2 fold change [1]: inactive: -0.098
log2 fold change (crizotinib): inactive: 0.165
log2 fold change [2]: inactive: -0.082
log2 fold change [3]: inactive: 0.195
log2 fold change (duvelisib): inactive: 0.019
log2 fold change (gandotinib): inactive: 0.038
log2 fold change [4]: inactive: 0.155
log2 fold change (doramapimod): inactive: -0.097

PPID (UniProt Q08752)
log2 fold change [1]: inactive: 0.055
log2 fold change (crizotinib): inactive: -0.102
log2 fold change [2]: inactive: 0.046
log2 fold change [3]: inactive: 0.071
log2 fold change (gandotinib): inactive: -0.145
log2 fold change [4]: inactive: 0.088
log2 fold change (doramapimod): inactive: 0.007
log2 fold change (ispinesib): inactive: -0.08

POLR1C (UniProt O15160)
log2 fold change [1]: inactive: 0.064
log2 fold change (crizotinib): inactive: 0.083
log2 fold change [2]: inactive: 0.019
log2 fold change [3]: inactive: 0
log2 fold change (duvelisib): inactive: -0.043
log2 fold change (gandotinib): inactive: 0.009
log2 fold change (tozasertib): inactive: 0.108
log2 fold change [4]: inactive: 0.175
log2 fold change (doramapimod): inactive: 0.058
log2 fold change (ispinesib): inactive: -0.154

PPIP5K2 (UniProt H0Y9S9)
log2 fold change [1]: inactive: 0.181
log2 fold change (crizotinib): inactive: 0.042
log2 fold change [2]: inactive: -0.018
log2 fold change [3]: inactive: -0.202
log2 fold change (duvelisib): inactive: -0.021
log2 fold change (tozasertib): inactive: -0.009
log2 fold change [4]: inactive: -0.093
log2 fold change (doramapimod): inactive: -0.049
log2 fold change (ispinesib): inactive: 0.095

PPIL2 (UniProt Q13356)
log2 fold change [1]: inactive: 0.029
log2 fold change (crizotinib): inactive: 0.027
log2 fold change [2]: inactive: 0.061
log2 fold change [3]: inactive: -0.012
log2 fold change (gandotinib): inactive: -0.081
log2 fold change [4]: inactive: 0.131
log2 fold change (doramapimod): inactive: -0.079
log2 fold change (ispinesib): inactive: 0.037

PMPCA (UniProt Q10713)
log2 fold change [1]: inactive: 0.006
log2 fold change (crizotinib): inactive: -0.014
log2 fold change [2]: inactive: 0.033
log2 fold change [3]: inactive: -0.07
log2 fold change (gandotinib): inactive: -0.076
log2 fold change [4]: inactive: -0.011
log2 fold change (doramapimod): inactive: 0.028
log2 fold change (ispinesib): inactive: -0.043

POGZ (UniProt Q7Z3K3)
log2 fold change [1]: inactive: 0.044
log2 fold change (crizotinib): inactive: -0.019
log2 fold change [2]: inactive: 0.242
log2 fold change [3]: inactive: 0.01
log2 fold change (gandotinib): inactive: 0.143
log2 fold change [4]: inactive: 0.142
log2 fold change (doramapimod): inactive: 0.053
log2 fold change (ispinesib): inactive: -0.221

POP1 (UniProt Q99575)
log2 fold change [1]: inactive: -0.034
log2 fold change (crizotinib): inactive: 0.02
log2 fold change [2]: inactive: -0.023
log2 fold change [3]: inactive: -0.05
log2 fold change (gandotinib): inactive: 0.012
log2 fold change [4]: inactive: -0.041
log2 fold change (doramapimod): inactive: 0.016
log2 fold change (ispinesib): inactive: 0.039

PLEKHM2 (UniProt Q8IWE5)
log2 fold change [1]: inactive: 0.023
log2 fold change (crizotinib): inactive: -0.162
log2 fold change [2]: inactive: 0.02
log2 fold change [3]: inactive: -0.047
log2 fold change (gandotinib): inactive: -0.06
log2 fold change [4]: inactive: 0.04
log2 fold change (doramapimod): inactive: 0.064
log2 fold change (ispinesib): inactive: -0.02

PMM2 (UniProt O15305)
log2 fold change [1]: inactive: 0.006
log2 fold change (crizotinib): inactive: 0.08
log2 fold change [2]: inactive: 0.013
log2 fold change [3]: inactive: 0.012
log2 fold change (gandotinib): inactive: -0.045
log2 fold change [4]: inactive: -0.031
log2 fold change (doramapimod): inactive: -0.015
log2 fold change (ispinesib): inactive: 0.009

PMM1 (UniProt Q92871)
log2 fold change [1]: inactive: 0.051
log2 fold change (crizotinib): inactive: 0.008
log2 fold change [2]: inactive: 0.032
log2 fold change [3]: inactive: 0.019
log2 fold change (gandotinib): inactive: -0.075
log2 fold change [4]: inactive: -0.011
log2 fold change (doramapimod): inactive: 0.027
log2 fold change (ispinesib): inactive: 0.026

POLR3B (UniProt Q9NW08)
log2 fold change [1]: inactive: 0.038
log2 fold change (crizotinib): inactive: -0.111
log2 fold change [2]: inactive: -0.004
log2 fold change [3]: inactive: 0.034
log2 fold change (gandotinib): inactive: -0.07
log2 fold change [4]: inactive: 0.085
log2 fold change (doramapimod): inactive: 0.03
log2 fold change (ispinesib): inactive: -0.183

From the supplement of paper PMC10849652
